PubChem BioAssay AID652272 | Drosophila RNAi Screening Center, 2013
Purpose: 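Genes whose knock-down decreases or increases Hedgehog reporter output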 (primary screen). Cell system: Drosophila clone 8 (Cl8) cells. Reagent: long dsRNA against Drosophila genes. Measurement: 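Plate reader light from a firefly reporter under a ptc promoter fragment that responds to Hedgehog, with Renilla light as transfection reference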. Direction: firefly Hh reporter signal: higher = more ptc reporter light; Renilla reference signal: higher = more Renilla control light. Call rule: 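Hit when the z-score averaged over two replicates is under -2 or over +3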. Meaning of the calls: active = hit: reporter lowered or raised; inactive = not a hit.
In all, the deposit lists about 21,000 reagents; this is a random part of those with a known target gene and a result. Over the whole deposit, 503 (2.4%) got an active call. 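Raw plate light values, not normalised; calls rest on replicate z-scores that were not deposited; hits include reporter decreases as well as increases.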 The numbers tell different reagents against one gene apart. Not stated in the record: the amount of reagent, the time to read-out.

CG9686 → firefly Hh reporter signal, replicate 1 = 99746; firefly Hh reporter signal, replicate 2 = 2.91e5; Renilla reference signal, replicate 1 = 2410; Renilla reference signal, replicate 2 = 7804; Call = inactive
BomBc1 → firefly Hh reporter signal, replicate 1 = 1.20e5; firefly Hh reporter signal, replicate 2 = 54426; Renilla reference signal, replicate 1 = 2441; Renilla reference signal, replicate 2 = 3793; Call = inactive
CG7968 → firefly Hh reporter signal, replicate 1 = 1.22e5; firefly Hh reporter signal, replicate 2 = 61482; Renilla reference signal, replicate 1 = 3418; Renilla reference signal, replicate 2 = 5601; Call = inactive
CG7094 → firefly Hh reporter signal, replicate 1 = 1.16e5; firefly Hh reporter signal, replicate 2 = 49427; Renilla reference signal, replicate 1 = 2816; Renilla reference signal, replicate 2 = 5140; Call = inactive
Irbp18 → firefly Hh reporter signal, replicate 1 = 44984; firefly Hh reporter signal, replicate 2 = 64328; firefly Hh reporter signal, replicate 3 = 56720; Renilla reference signal, replicate 1 = 5480; Renilla reference signal, replicate 2 = 3995; Call = inactive
Pcyt2 → firefly Hh reporter signal, replicate 1 = 1.40e5; firefly Hh reporter signal, replicate 2 = 1.17e5; Renilla reference signal, replicate 1 = 5666; Renilla reference signal, replicate 2 = 5186; Call = inactive

Already shown: an excerpt of the list.
Irbp18 → firefly Hh reporter signal, replicate 1 = 44984; firefly Hh reporter signal, replicate 2 = 64328; firefly Hh reporter signal, replicate 3 = 56720; Renilla reference signal, replicate 1 = 5480; Renilla reference signal, replicate 2 = 3995; Call = inactive
Pcyt2 → firefly Hh reporter signal, replicate 1 = 1.40e5; firefly Hh reporter signal, replicate 2 = 1.17e5; Renilla reference signal, replicate 1 = 5666; Renilla reference signal, replicate 2 = 5186; Call = inactive

The list goes on:
Galphao → firefly Hh reporter signal, replicate 1 = 91097; firefly Hh reporter signal, replicate 2 = 81107; Renilla reference signal, replicate 1 = 4194; Renilla reference signal, replicate 2 = 3523; Call = inactive
jp #1 → firefly Hh reporter signal, replicate 1 = 1.17e5; firefly Hh reporter signal, replicate 2 = 1.23e5; Renilla reference signal, replicate 1 = 4467; Renilla reference signal, replicate 2 = 5083; Call = inactive
jp #2 → firefly Hh reporter signal, replicate 1 = 1.04e5; firefly Hh reporter signal, replicate 2 = 47269; Renilla reference signal, replicate 1 = 3349; Renilla reference signal, replicate 2 = 4869; Call = inactive
Abcd3 → firefly Hh reporter signal, replicate 1 = 80419; firefly Hh reporter signal, replicate 2 = 2.50e5; Renilla reference signal, replicate 1 = 800; Renilla reference signal, replicate 2 = 10360; Call = inactive
Jhbp12 → firefly Hh reporter signal, replicate 1 = 5.07e5; firefly Hh reporter signal, replicate 2 = 82058; Renilla reference signal, replicate 1 = 25501; Renilla reference signal, replicate 2 = 2534; Call = inactive
gol → firefly Hh reporter signal, replicate 1 = 79529; firefly Hh reporter signal, replicate 2 = 72752; Renilla reference signal, replicate 1 = 3307; Renilla reference signal, replicate 2 = 2800; Call = inactive
